PMC12032075
These are yes or no findings as the source states them, for the method shown. In cells and extracts the contact can be indirect. Some entries that bind do so weakly or less than the wild type.

Sequences of proteins named here, by UniProt entry; tags and fusion partners are left off.
UniProt Q14457: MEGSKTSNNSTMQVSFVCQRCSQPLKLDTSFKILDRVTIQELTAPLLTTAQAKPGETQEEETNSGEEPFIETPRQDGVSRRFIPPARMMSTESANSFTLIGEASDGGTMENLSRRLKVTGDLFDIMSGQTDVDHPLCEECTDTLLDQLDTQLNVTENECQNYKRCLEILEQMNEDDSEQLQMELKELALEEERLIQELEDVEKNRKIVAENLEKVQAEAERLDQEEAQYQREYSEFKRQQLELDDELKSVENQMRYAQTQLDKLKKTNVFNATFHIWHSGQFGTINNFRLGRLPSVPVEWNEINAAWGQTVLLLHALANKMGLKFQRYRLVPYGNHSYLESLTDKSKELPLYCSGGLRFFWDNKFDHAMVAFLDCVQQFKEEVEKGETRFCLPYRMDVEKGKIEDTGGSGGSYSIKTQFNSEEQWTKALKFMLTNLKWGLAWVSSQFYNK

Target: T1, USP19 (human (endogenous in LoVo and SW480)) (UniProt O94966)
T1 sequence: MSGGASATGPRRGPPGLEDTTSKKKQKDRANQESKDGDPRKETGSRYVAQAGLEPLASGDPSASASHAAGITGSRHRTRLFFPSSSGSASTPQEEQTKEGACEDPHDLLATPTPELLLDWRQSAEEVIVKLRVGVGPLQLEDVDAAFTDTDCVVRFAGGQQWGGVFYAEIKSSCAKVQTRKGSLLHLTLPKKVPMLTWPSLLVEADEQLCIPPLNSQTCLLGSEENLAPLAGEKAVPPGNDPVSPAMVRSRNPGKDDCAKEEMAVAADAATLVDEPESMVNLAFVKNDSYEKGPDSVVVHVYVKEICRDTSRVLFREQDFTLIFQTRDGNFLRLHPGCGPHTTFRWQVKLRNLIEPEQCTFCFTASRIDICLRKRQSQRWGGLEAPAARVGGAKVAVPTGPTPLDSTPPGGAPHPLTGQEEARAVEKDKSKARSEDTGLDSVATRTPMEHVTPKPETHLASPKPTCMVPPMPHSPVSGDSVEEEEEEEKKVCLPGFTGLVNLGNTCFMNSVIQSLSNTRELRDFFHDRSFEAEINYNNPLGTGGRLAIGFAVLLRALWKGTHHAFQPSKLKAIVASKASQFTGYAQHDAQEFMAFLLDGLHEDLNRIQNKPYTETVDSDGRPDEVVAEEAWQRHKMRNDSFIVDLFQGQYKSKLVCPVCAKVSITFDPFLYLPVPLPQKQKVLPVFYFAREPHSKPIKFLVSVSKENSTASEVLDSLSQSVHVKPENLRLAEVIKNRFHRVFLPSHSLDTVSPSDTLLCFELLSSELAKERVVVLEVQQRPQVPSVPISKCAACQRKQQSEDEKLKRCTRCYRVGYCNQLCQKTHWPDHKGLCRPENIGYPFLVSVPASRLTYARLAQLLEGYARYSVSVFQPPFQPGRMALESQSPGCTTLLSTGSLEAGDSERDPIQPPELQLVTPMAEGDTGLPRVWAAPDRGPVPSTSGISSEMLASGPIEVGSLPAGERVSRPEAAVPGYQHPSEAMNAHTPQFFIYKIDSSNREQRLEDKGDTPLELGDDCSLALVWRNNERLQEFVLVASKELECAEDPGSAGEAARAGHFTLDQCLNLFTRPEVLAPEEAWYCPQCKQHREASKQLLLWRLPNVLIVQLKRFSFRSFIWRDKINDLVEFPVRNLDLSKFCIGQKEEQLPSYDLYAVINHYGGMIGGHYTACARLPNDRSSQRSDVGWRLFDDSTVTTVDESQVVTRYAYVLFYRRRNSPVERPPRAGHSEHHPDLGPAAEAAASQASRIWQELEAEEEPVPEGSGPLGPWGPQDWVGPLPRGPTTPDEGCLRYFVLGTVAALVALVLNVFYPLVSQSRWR
Assay: co-IP; proteins precipitated using USP19 from LoVo and SW480 cells, Beclin1 detected; no IP method printed

- binding: binds
Substance: Beclin1 (from UniProt Q14457 1-450)
